US8686143B2, “Compounds useful as inhibitors of Janus kinases” (Vertex Pharmaceuticals Incorporated, priority 2007, dated 2014)
At least one structure is not confirmed: it was looked up by name or label, or the drawing left a doubt.

Molecular target: T1, JAK3 (Homo sapiens, UniProt P52333)
T1 sequence (P52333 1-1124): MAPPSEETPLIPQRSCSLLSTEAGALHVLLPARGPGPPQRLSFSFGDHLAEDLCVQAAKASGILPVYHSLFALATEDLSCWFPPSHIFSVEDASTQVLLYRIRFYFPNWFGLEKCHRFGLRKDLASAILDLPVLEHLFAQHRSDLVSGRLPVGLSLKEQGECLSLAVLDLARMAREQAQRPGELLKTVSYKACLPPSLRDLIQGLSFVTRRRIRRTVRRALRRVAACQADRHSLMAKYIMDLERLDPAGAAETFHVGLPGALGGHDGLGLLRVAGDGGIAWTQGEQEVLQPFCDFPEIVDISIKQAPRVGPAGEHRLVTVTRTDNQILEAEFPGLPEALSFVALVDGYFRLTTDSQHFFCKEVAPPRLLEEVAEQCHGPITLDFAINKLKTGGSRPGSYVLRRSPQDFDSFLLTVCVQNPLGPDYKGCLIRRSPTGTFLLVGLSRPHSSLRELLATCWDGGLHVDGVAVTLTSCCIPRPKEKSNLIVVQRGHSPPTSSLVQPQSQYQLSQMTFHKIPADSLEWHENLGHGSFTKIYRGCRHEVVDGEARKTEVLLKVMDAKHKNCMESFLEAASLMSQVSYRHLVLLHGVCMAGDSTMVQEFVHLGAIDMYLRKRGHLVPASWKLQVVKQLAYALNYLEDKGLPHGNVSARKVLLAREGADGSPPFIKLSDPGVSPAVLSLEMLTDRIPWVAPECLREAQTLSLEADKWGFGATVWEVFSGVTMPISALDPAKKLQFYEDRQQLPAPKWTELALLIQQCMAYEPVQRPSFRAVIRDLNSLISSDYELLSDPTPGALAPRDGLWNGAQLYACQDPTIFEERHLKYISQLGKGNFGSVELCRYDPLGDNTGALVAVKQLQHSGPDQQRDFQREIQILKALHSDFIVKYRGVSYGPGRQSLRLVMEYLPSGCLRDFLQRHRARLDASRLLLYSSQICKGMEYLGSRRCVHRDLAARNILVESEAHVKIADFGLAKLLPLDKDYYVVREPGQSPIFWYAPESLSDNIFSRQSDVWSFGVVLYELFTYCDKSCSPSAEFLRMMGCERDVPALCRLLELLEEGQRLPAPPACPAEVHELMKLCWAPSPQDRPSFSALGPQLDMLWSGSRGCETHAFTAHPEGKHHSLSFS
Assay: JAK3 Inhibition Assay (33P incorporation into poly(Glu)4Tyr)
Assay type: biochemical
Protocol: Compounds were screened for their ability to inhibit JAK3 using the assay shown below. Reactions were carried out in a kinase buffer containing 100 mM HEPES (pH 7.4), 1 mM DTT, 10 mM MgCl2, 25 mM NaCl, and 0.01% BSA. Substrate concentrations in the assay were 5 μM ATP (200 uCi/μmole ATP) and 1 μM poly(Glu)4Tyr. Reactions were carried out at 25° C. and 1 nM JAK3.
To each well of a 96 well polycarbonate plate was added 1.5 μl of a candidate JAK3 inhibitor along with 50 μlof kinase buffer containing 2 μM poly(Glu)4Tyr and 10 μM ATP. This was then mixed and 50 μl of kinase buffer containing 2 nM JAK3 enzyme was added to start the reaction. After 20 minutes at room temperature (25° C.), the reaction was stopped with 50 μl of 20% trichloroacetic acid (TCA) that also contained 0.4 mM ATP. The entire contents of each well were then transferred to a 96 well glass fiber filter plate using a TomTek Cell Harvester. After washing, 60 μl of scintillation fluid was added and ^33P incorporation detected on a Perkin Elmer TopCount.

Row | SMILES | inhibition of JAK3 at concentrations of 50 μM
1 | CC(C)[C@@H](Nc1nc(-c2c[nH]c(C(=O)O)c2)ncc1F)C(=O)NCC(F)(F)F [Compound 131] | did not inhibit
2 | COc1ccc(-c2ncc(F)c(N3CCC[C@@H]3C(=O)NCC(F)(F)F)n2)cc1 [Compound 152] | did not inhibit
